From paper PMC8980629
No constants are given. Whether binding was seen depends on the method and setting. For some of these results: Binding seen in cells or lysates may run through a third protein. Some entries that bind do so weakly or less than the wild type.

Amino acid sequences for entries named in this document (tags omitted). A change or cut given only in a name is not applied to a line headed by its entry. Chains listed by the source or under a name are the forms on record and can include a tag or linker.
UniProt P23258: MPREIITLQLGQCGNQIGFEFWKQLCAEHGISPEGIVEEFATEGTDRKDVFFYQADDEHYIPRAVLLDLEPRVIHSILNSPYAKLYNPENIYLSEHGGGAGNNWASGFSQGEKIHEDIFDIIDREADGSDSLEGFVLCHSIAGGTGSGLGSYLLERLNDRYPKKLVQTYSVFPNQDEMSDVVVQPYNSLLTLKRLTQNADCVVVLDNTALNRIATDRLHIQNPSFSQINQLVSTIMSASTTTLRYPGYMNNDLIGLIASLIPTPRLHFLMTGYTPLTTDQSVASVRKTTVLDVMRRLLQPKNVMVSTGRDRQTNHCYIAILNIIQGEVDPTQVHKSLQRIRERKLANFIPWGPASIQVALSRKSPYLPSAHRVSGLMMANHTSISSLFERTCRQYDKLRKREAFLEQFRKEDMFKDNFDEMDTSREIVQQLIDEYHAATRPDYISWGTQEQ
UniProt Q96RT8: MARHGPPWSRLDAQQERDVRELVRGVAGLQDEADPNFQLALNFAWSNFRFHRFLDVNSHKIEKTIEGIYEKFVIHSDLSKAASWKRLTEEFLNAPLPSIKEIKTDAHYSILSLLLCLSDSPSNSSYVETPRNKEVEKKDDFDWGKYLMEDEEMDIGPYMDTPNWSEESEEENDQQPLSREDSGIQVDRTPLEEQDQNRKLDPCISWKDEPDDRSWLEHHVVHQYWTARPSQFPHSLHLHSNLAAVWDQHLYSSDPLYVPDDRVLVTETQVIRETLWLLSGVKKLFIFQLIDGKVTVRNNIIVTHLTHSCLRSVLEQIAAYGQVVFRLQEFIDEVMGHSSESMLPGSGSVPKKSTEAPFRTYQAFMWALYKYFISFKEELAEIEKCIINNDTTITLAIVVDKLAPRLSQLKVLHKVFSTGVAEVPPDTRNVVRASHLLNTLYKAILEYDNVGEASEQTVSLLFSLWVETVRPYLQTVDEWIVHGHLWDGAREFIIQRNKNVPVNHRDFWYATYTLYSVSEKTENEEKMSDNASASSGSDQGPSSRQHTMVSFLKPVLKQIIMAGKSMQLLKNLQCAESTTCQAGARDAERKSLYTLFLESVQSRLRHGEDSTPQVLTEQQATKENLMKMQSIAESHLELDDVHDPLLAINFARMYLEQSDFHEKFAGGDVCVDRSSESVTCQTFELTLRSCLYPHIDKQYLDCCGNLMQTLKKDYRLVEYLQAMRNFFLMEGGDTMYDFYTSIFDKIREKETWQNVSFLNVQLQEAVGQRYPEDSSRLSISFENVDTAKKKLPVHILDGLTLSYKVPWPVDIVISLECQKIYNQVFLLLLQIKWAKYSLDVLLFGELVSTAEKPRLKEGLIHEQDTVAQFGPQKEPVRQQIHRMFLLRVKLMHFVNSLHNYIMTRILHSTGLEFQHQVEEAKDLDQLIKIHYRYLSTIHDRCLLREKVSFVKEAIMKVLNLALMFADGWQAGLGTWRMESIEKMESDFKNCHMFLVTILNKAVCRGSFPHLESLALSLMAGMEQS
UniProt P00519: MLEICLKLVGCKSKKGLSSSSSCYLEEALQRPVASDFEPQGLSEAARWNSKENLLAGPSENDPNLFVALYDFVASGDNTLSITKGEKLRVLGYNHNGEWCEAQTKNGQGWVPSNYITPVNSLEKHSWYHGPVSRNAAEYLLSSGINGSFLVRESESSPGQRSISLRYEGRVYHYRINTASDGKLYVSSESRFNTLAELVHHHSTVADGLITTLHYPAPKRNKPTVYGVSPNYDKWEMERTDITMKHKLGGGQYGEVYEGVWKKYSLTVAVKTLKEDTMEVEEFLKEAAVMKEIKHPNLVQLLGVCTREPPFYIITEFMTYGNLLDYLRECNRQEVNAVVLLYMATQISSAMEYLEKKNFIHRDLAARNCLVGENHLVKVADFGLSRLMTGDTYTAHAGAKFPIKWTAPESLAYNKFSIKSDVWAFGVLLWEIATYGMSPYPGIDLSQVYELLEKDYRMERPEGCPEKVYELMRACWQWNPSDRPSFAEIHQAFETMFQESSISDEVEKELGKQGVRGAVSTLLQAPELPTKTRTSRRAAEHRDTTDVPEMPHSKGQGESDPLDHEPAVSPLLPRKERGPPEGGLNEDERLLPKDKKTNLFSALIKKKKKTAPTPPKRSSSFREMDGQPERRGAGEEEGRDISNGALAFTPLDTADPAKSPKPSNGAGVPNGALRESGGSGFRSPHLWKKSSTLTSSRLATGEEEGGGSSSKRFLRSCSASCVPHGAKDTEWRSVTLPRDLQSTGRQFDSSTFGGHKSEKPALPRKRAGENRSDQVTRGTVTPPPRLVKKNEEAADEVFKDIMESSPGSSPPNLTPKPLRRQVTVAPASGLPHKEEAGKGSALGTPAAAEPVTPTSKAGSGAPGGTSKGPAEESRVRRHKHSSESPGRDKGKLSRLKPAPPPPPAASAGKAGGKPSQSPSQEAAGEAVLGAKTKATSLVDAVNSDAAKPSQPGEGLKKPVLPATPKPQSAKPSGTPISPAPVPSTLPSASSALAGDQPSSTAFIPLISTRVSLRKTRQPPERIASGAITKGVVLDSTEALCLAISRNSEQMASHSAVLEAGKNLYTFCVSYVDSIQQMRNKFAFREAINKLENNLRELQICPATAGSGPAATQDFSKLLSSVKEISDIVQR
Myc-c-Abl(K290R) (P00519-2, form named): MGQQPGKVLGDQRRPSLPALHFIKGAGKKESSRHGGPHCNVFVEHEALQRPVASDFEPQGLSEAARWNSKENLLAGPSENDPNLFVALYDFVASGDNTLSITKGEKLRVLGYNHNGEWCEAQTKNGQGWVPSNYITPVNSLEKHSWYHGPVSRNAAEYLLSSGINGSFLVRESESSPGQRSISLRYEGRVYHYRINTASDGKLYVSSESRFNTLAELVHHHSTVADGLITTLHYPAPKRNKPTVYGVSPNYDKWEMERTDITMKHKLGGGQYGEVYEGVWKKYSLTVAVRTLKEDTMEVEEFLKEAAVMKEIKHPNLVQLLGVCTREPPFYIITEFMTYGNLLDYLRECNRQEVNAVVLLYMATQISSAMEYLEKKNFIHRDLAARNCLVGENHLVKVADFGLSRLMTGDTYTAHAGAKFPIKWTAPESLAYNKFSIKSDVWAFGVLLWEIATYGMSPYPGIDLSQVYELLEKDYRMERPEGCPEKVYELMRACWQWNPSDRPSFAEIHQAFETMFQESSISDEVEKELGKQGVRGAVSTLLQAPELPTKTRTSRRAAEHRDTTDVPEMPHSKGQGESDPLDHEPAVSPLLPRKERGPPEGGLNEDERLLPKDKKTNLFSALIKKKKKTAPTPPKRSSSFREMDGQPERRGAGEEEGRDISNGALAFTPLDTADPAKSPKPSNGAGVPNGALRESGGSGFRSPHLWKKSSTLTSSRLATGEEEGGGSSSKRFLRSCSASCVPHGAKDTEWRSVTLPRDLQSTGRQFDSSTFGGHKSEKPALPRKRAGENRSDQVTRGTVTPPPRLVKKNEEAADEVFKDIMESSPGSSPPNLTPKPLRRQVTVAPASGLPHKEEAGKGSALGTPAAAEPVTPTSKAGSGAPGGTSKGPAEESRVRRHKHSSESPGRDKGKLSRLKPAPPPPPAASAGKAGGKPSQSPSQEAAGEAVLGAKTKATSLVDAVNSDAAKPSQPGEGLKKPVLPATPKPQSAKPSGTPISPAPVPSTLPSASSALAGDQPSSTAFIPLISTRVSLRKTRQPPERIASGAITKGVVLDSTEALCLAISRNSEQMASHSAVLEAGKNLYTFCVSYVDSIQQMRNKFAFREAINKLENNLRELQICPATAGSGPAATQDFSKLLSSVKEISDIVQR
Myc-c-Abl (P00519-2, form named): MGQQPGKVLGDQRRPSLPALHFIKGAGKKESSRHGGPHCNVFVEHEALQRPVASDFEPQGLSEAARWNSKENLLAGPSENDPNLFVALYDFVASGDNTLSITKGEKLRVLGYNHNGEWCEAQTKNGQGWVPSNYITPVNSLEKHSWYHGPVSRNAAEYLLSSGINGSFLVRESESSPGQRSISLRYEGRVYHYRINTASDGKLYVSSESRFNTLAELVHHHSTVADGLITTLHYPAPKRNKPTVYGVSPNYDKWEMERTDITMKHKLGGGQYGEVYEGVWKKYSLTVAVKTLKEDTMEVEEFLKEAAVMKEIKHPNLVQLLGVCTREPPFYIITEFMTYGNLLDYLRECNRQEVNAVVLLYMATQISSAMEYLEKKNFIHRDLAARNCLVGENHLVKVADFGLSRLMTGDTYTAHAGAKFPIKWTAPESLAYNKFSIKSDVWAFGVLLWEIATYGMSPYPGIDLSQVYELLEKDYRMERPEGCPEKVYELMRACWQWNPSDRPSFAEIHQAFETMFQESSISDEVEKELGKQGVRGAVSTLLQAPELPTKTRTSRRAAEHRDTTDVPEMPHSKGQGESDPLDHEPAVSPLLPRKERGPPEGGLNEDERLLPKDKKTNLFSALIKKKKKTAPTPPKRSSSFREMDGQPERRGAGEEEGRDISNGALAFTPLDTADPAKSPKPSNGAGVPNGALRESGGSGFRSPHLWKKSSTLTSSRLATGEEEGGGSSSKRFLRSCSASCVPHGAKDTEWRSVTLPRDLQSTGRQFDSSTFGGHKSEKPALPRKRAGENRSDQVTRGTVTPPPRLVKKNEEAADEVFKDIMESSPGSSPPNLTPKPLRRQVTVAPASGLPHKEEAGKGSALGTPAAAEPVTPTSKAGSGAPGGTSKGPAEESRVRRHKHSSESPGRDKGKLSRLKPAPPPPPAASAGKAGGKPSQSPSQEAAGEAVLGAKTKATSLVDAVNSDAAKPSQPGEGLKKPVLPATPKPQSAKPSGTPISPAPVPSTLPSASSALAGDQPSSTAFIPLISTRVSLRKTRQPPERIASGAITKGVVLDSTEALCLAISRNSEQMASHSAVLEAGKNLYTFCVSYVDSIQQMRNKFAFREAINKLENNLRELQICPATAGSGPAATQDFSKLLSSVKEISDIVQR
UniProt P42684: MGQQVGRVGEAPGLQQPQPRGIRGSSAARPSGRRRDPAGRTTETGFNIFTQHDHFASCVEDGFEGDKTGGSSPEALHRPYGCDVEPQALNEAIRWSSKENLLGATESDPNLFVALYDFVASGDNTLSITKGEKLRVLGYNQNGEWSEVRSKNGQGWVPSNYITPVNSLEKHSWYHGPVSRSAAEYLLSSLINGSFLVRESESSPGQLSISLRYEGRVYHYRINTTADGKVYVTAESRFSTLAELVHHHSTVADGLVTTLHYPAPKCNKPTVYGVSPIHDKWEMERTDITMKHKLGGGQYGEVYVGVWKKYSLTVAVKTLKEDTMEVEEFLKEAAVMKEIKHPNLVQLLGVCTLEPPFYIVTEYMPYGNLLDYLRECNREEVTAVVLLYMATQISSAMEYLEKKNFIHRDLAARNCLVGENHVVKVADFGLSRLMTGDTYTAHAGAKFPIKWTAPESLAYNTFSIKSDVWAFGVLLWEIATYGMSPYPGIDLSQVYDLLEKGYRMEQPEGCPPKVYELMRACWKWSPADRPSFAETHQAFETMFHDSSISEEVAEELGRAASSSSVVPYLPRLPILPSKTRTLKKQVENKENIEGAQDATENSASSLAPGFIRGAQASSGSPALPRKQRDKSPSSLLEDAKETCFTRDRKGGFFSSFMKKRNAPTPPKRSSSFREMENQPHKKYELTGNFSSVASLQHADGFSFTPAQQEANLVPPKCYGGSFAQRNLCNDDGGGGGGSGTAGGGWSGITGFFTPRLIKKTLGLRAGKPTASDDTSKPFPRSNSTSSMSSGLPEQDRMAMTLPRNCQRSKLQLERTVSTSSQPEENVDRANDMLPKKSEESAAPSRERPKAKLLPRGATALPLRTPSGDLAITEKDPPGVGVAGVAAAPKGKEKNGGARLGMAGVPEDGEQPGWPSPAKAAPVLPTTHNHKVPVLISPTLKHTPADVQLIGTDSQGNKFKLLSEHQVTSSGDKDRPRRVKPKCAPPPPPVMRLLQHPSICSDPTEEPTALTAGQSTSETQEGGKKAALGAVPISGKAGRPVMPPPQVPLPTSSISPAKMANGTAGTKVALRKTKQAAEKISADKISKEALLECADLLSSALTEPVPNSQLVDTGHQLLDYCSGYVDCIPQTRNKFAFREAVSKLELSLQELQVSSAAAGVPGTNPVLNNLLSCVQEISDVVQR

Tests used:
[1] = biological target: Flag-γ-tubulin (human) (UniProt P23258); test: co-IP; anti-Flag immunoprecipitation of lysates of HEK293T cells transfected with Flag-γ-tubulin or Flag-γ-tubulin(Y443F) and Myc-c-Abl or Myc-c-Abl(K290R), treated with or without nilotinib (10 μM) or STI571 (10 μM); immunoblot
[2] = biological target: γ-tubulin (endogenous) (human (endogenous in MCF-7, U2OS, HeLa)) (UniProt P23258); test: proximity ligation; Duolink in situ PLA with anti-c-Abl (rabbit) and anti-γ-tubulin (mouse) in fixed HeLa cells stably expressing GFP-H2B; interphase and mitosis
[3] = biological target: γ-tubulin (endogenous) (human (endogenous in MCF-7, U2OS, HeLa)) (UniProt P23258); test: co-IP; anti-γ-tubulin against control IgG, MCF-7 lysate, endogenous proteins; immunoblot
[4] = biological target: GCP5 (endogenous) (human (endogenous in U2OS, MCF-7)) (UniProt Q96RT8); test: co-IP; anti-GCP5 (Santa Cruz) against control IgG, lysates of wild-type or abl1−/−abl2−/− U2OS or MCF-7 cells, or U2OS stably expressing γ-tubulin-Flag or γ-tubulin(Y443F)-Flag; 50 mM Tris-HCl pH 7.5, 150 mM NaCl, 1 mM EDTA, 1% Nonidet P-40; immunoblot
[5] = biological target: GST-c-Abl SH3 (UniProt P00519); test: pull-down; lysates of HEK293T cells expressing Flag-γ-tubulin and Myc-c-Abl incubated 2 h at 4 °C with about 5 μg purified GST or GST fusion protein on glutathione beads; anti-Flag immunoblot; only the target purified
[6] = biological target: Flag-γ-tubulin (human) (UniProt P23258); test: condition: only cells treated with nilotinib (10 μM); co-IP; anti-Flag immunoprecipitation of lysates of HEK293T cells transfected with Flag-γ-tubulin and Myc-c-Abl, cells treated with nilotinib (10 μM); immunoblot
[7] = biological target: Flag-γ-tubulin(Y443F) (human) (UniProt P23258); test: co-IP; anti-Flag immunoprecipitation of lysates of HEK293T cells transfected with Flag-γ-tubulin or Flag-γ-tubulin(Y443F) and Myc-c-Abl or Myc-c-Abl(K290R), treated with or without nilotinib (10 μM) or STI571 (10 μM); immunoblot
[8] = biological target: Flag-γ-tubulin (human) (UniProt P23258); test: co-IP; anti-Flag immunoprecipitation of lysates of HEK293T cells transfected with Flag-γ-tubulin and Myc-c-Abl, cells treated with STI571 (10 μM); immunoblot
[9] = biological target: Flag-c-Abl (UniProt P00519); test: far-Western, overlay or dot blot; anti-Flag immunoprecipitates from HEK293T resolved by SDS-PAGE and blotted onto PVDF; membrane incubated with purified GST or GST fusion protein 2 h at room temperature; probed with anti-GST; both purified
[10] = biological target: Flag-γ-tubulin (human) (UniProt P23258); test: as above
[11] = biological target: Myc-c-Abl (UniProt P00519); test: co-IP; anti-Myc immunoprecipitation of lysates of HEK293T cells cotransfected with Myc-c-Abl and γ-tubulin-Flag; immunoblot

Myc-c-Abl(K290R) (from UniProt P00519-2 1-1149) (enzyme)
binding [1]: no binding

c-Abl (endogenous) (from UniProt P00519 1-1130) (enzyme)
binding [2]: binds | binding [3]: binds | binding [4]: binds

Arg (endogenous) (from UniProt P42684 1-1182) (enzyme)
binding [3]: binds

Flag-γ-tubulin (from UniProt P23258 1-451)
binding [5]: no binding

Myc-c-Abl (from UniProt P00519-2 1-1149) (enzyme)
binding [6]: no binding | binding [7]: binds | binding [1]: binds | binding [8]: no binding (condition: cells treated with STI571 (10 μM))

GST-γ-tubulin (from UniProt P23258 1-451)
binding [9]: binds

GST-c-Abl SH3 (from UniProt P00519 61-121) (domain or fragment)
binding [10]: no binding

γ-tubulin-Flag (HEK293T) (from UniProt P23258 1-451)
binding [11]: binds
